Test results from PMC12288273.

By UniProt entry, the sequences of proteins in these tests, tags left out. Where a name states a change or a piece, a line headed by the entry shows the natural chain unless it says otherwise. Residues count along the entry.
UniProt P16871: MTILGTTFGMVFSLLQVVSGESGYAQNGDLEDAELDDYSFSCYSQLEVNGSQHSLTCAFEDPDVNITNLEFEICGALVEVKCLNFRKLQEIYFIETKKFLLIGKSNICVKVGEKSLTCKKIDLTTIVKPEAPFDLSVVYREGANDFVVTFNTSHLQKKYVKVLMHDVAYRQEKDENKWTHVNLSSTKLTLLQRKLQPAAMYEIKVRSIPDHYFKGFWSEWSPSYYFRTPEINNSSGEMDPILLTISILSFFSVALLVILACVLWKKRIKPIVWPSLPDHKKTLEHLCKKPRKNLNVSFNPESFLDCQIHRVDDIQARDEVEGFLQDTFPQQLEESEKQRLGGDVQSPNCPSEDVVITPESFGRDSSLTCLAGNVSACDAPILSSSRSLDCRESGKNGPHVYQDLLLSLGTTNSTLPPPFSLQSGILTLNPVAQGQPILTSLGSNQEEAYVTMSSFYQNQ
myc-IL-7R 1–414: residues 21-414 of P16871
myc-IL-7R 1–364: residues 21-364 of P16871
myc-IL-7R 1–314: residues 21-314 of P16871
UniProt P25774: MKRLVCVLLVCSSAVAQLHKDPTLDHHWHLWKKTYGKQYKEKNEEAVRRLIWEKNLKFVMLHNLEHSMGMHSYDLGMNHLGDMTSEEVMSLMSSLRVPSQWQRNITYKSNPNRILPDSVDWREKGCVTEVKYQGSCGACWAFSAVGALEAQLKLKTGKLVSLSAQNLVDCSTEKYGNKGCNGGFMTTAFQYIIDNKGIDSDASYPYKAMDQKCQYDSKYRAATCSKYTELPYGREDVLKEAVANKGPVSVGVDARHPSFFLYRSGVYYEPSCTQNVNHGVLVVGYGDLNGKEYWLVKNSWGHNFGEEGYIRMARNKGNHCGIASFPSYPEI

Assays:
[1] = biological target: IL-7R-RFP (pCMV6-AC-mRFP-IL-7R) (UniProt P16871); assay: FRET or BRET; OEC-M1 cells co-transfected with CTSS-mGFP (donor) and IL-7R-mRFP or IL-7R 1-264-mRFP (acceptor), 48 h, fixed, confocal microscopy
myc-IL-7R 1–314 = myc-IL-7R 1–314 (UniProt P16871); assay: co-IP; OEC-M1 cells transfected with myc-tagged IL-7R or truncations, 48 h; myc tag precipitated with anti-myc antibody; CTSS detected by Western blot
[2] = biological target: myc-IL-7R (pCDNA3.1 myc-IL-7R) (UniProt P16871); assay: as above
myc-IL-7R 1–414 = myc-IL-7R 1–414 (UniProt P16871); assay: as above
myc-IL-7R 1–364 = myc-IL-7R 1–364 (UniProt P16871); assay: as above
[3] = biological target: Cathepsin S (human (endogenous in OEC-M1)) (UniProt P25774); assay: co-IP; CTSS precipitated with anti-CTSS antibody from lysate of OEC-M1 cells pretreated with siScramble or siCTSS; IL-7R detected by Western blot; protein A Sepharose, 4 °C overnight, 0.5% NP-40

With “CTSS-GFP (pCMV6-AC-mGFP-CTSS) (from UniProt P25774) (enzyme)” the binding [1] was “binds”.

“Cathepsin S (from UniProt P25774) (enzyme)” was tested, and the binding (myc-IL-7R 1–314) was “binds”, the binding [2] was “binds” and the binding (myc-IL-7R 1–414) was “binds”. For the same substance, the binding (myc-IL-7R 1–364) was “binds”.

For “IL-7 receptor (from UniProt P16871 21-459)”, the binding [3] was “binds”.

Results are given in words; binding and its absence hold for the method and conditions named. In cells and extracts the contact can be indirect. Binding calls can cover weak binding; strength is not graded here.
